Laboratory results: the supplement of paper PMC12823440, “Inhibitors supercharge kinase turnover through native proteolytic circuits” (Nature, 2025)
Where a name gives a salt, the structure may show the parent alone. The list shows a part of the results. Hit calls seldom repeat between salt and free forms of one compound.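 In K562 cells expressing nanoluciferase-fused kinases, luminescence was recorded at 4 h intervals between 2 and 18 h, normalized as percent of control with DMSO at 100% and a positive control at 0%. A significant (2 sigma) signal drop marks a time point as decreased. The authors' rule for a hit is not shown and takes in more than the number of time points.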

Chains of the proteins cited; added tags and fusions are not shown. Lines headed by an entry give the natural chain unless they say otherwise; changes in a name come on top.
UniProt P36888, whole entry: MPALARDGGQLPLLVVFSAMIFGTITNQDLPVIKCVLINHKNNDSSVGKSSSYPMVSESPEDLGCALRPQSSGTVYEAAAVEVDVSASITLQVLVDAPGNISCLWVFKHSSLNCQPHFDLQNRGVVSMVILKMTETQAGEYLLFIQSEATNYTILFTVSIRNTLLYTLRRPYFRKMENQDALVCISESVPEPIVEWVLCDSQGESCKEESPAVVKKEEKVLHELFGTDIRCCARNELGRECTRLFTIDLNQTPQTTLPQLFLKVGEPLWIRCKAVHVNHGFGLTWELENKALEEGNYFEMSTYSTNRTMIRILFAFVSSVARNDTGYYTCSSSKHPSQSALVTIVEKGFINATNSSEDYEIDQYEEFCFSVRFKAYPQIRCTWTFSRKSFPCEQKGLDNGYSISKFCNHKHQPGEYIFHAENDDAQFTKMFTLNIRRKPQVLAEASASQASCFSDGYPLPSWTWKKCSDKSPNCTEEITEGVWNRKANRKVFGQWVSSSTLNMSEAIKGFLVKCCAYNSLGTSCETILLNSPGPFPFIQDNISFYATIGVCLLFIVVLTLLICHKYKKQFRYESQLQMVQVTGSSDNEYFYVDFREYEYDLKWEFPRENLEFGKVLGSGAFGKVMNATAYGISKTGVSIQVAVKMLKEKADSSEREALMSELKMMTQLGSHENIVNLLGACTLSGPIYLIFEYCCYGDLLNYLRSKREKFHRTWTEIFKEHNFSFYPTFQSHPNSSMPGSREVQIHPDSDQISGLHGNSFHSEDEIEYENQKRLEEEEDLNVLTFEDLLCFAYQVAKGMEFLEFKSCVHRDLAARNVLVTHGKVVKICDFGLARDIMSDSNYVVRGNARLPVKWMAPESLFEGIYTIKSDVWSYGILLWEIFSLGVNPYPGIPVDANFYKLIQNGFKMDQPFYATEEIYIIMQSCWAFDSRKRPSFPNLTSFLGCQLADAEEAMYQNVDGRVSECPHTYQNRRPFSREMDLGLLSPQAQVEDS
UniProt P06241, whole entry, looked up: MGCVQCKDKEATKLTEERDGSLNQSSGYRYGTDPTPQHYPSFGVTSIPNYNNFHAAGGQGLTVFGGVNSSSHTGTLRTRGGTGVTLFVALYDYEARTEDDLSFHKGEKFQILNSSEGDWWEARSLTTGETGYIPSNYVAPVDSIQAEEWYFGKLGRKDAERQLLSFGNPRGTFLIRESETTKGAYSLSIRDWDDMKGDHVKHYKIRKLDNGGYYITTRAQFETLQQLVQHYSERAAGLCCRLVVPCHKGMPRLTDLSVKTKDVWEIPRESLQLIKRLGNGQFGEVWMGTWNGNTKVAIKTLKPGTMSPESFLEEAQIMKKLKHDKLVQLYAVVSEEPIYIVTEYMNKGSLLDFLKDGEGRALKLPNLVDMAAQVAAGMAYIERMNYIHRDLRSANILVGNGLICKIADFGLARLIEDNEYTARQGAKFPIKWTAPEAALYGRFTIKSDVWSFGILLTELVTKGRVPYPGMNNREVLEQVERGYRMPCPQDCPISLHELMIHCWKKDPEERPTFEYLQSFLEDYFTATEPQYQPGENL
UniProt P49840: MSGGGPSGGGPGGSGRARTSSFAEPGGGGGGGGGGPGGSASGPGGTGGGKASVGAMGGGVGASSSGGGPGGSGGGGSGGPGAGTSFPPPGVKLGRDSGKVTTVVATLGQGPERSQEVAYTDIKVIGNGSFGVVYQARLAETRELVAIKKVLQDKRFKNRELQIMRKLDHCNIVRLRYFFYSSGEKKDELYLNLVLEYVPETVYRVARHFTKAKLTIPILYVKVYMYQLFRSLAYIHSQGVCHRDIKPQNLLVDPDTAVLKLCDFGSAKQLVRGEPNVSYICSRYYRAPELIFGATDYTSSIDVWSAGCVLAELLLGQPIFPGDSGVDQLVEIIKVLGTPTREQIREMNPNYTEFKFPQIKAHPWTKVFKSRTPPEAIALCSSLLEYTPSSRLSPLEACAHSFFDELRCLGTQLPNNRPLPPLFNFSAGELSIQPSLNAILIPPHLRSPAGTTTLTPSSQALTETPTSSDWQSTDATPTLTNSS
UniProt P14616: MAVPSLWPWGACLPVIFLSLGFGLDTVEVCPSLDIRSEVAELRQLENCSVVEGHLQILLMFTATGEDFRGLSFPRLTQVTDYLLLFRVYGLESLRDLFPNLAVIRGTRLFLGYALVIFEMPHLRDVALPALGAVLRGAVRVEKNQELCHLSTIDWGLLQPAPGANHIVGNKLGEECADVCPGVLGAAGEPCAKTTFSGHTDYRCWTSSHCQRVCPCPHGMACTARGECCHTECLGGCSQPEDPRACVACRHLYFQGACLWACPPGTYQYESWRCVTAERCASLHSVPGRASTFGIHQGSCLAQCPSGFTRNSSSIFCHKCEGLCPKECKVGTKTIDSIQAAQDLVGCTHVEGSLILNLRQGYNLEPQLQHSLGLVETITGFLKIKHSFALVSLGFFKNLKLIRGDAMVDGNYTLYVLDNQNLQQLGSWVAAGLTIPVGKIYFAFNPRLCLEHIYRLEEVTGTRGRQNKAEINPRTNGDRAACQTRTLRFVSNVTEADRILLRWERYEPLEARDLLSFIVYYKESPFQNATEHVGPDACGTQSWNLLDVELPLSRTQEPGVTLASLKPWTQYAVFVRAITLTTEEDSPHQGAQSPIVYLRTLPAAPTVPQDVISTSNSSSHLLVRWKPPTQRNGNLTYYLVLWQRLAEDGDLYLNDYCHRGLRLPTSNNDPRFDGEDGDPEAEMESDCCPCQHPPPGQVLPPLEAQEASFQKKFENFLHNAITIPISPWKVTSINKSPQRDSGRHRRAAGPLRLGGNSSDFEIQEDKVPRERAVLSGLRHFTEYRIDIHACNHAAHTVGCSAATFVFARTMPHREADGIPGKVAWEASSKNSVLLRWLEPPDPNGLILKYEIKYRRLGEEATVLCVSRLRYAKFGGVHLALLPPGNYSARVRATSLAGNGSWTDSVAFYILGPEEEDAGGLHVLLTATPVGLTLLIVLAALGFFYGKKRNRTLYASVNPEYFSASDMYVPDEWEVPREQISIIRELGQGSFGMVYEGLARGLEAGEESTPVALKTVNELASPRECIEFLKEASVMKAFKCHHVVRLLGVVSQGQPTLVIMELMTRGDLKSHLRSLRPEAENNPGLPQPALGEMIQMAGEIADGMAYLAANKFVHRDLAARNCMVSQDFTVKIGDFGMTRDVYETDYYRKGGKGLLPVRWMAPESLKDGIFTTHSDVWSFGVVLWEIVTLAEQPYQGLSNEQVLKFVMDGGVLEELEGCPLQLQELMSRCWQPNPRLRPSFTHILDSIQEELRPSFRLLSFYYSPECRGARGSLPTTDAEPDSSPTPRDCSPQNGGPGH
UniProt Q9Y616: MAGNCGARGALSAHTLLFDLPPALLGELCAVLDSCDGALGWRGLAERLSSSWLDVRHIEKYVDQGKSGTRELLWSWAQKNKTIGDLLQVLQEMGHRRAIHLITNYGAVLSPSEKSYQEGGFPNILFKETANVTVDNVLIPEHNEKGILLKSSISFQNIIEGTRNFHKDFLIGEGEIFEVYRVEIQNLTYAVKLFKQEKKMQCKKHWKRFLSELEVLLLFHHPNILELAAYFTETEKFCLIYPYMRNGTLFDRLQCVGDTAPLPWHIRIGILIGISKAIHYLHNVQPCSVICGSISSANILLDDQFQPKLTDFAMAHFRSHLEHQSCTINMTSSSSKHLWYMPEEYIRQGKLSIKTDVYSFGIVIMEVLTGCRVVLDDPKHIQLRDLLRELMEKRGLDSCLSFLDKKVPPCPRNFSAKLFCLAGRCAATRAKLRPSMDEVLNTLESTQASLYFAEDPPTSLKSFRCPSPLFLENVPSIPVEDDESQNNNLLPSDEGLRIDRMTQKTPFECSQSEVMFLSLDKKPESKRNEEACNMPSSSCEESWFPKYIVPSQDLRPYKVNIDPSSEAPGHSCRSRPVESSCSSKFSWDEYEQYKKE
UniProt P23458: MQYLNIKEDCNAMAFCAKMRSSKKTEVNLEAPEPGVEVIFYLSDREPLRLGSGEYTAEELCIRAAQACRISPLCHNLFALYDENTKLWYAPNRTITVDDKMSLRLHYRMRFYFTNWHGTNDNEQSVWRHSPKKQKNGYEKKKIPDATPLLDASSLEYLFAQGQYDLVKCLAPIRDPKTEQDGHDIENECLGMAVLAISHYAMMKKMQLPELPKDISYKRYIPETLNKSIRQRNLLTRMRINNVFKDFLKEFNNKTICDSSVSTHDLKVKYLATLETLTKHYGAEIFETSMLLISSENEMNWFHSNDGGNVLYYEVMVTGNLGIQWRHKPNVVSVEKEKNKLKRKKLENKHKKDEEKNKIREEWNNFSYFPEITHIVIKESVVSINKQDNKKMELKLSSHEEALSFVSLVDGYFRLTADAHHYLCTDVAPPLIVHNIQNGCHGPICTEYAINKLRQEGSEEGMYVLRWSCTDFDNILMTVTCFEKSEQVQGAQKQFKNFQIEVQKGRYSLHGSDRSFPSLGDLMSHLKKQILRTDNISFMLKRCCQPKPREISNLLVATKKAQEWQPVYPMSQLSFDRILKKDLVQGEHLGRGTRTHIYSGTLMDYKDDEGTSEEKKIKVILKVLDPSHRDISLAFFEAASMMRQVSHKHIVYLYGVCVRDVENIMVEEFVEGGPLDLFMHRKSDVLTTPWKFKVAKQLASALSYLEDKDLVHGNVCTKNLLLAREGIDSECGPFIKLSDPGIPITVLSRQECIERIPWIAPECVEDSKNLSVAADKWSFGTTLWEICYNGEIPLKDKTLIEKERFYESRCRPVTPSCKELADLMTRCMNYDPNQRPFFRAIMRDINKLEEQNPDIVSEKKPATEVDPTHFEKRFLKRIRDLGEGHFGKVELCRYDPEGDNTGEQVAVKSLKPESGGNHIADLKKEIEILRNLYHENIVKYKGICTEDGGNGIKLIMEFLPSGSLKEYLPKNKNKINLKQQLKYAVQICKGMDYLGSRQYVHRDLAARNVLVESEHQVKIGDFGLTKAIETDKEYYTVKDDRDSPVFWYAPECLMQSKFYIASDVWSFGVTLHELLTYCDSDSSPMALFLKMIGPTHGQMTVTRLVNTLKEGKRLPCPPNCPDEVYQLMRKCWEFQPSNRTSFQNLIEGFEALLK
UniProt P06239: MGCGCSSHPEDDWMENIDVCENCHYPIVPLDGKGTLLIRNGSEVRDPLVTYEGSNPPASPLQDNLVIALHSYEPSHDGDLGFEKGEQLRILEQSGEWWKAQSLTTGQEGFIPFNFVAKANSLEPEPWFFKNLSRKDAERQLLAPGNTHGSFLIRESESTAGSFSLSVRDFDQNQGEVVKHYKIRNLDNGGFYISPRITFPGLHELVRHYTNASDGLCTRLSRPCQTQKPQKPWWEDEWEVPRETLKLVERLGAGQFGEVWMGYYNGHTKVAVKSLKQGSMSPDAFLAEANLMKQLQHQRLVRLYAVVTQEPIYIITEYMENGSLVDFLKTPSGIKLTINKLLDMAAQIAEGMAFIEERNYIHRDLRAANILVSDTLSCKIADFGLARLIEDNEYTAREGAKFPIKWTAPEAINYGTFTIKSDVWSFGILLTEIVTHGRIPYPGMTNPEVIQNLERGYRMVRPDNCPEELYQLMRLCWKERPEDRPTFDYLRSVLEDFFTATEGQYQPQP
UniProt P53667: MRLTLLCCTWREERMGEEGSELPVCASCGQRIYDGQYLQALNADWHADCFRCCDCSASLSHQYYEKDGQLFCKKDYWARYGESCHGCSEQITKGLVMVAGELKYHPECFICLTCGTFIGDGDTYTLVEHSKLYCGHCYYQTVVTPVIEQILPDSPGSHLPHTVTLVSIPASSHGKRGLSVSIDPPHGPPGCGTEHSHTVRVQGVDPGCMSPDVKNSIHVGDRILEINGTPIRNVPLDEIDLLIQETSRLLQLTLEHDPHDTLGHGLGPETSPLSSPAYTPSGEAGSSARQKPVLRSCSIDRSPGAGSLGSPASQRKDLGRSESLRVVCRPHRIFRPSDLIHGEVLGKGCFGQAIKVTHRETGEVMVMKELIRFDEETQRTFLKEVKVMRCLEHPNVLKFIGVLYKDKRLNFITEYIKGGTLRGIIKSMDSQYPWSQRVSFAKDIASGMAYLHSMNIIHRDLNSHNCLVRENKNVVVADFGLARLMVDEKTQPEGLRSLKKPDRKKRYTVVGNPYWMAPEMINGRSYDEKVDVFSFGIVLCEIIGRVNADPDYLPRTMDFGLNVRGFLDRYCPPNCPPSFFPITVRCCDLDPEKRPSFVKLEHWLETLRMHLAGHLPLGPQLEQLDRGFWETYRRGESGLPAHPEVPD

How the values were obtained:
Experiment in all cases: number of time points (of 5) at which kinase-Nluc abundance scored as decreased, DMSO-normalised (count); higher = more persistent destabilization
Settings in all cases: K562; 2-18 h
FLT3 = FLT3 (UniProt P36888)
FYN = FYN (UniProt P06241)
GSK3A = GSK3A (UniProt P49840)
HER2 = HER2 (UniProt P04626)
INSRR = INSRR (UniProt P14616)
IRAK3 = IRAK3 (UniProt Q9Y616)
JAK1 = JAK1 (UniProt P23458)
LCK = LCK (UniProt P06239)
LIMK1 = LIMK1 (UniProt P53667)
LIMK2 = LIMK2 (UniProt P53671)

Row | Compound | number of time points (FLT3) | number of time points (FYN) | number of time points (GSK3A) | number of time points (HER2) | number of time points (INSRR) | number of time points (IRAK3) | number of time points (JAK1) | number of time points (LCK) | number of time points (LIMK1) | number of time points (LIMK2)
1 | COc1cc2ncc(-c3ccccc3)nc2cc1OC [Tyrphostin AG1296] (10 µM) | 0 | 0 | 0 | 0 | 0 | 0 | 0 | 0 | 0 | 0
2 | Cc1cc2ncc(-c3ccc(O)c(O)c3)nc2cc1C [Tyrphostin AG1433] (10 µM) | 0 | 0 | 0 | 0 | 0 | 0 | 0 | 0 | 0 | 0
3 | COc1cc2nccc(Oc3ccc(NC(=O)NC4CC4)c(Cl)c3)c2cc1C(N)=O [Lenvatinib (mesylate)] (10 µM) | 3 | 0 | 0 | 1 | 2 | 2 | 3 | 0 | 0 | 0
4 | Cc1ccc(C(=O)Nc2ccc(Oc3cc4cnn(C)c4cc3-c3cn[nH]c3)c(F)c2)c(=O)n1-c1ccc(F)cc1 [Merestinib dihydrochloride] (2.5 µM) | 0 | 0 | 0 | 0 | 0 | 0 | 0 | 0 | 3 | 0
5 | Cc1nc2sccn2c(=O)c1CCN1CCC(=C(c2ccccc2)c2ccc(F)cc2)CC1 (10 µM) | 0 | 0 | 0 | 0 | 0 | 0 | 0 | 0 | 0 | 0
6 | Nc1cc(C(F)(F)F)c(-c2cc(N3CCOCC3)nc(N3CCOCC3)n2)cn1 [Buparlisib (Hydrochloride)] (2.5 µM) | 0 | 0 | 0 | 1 | 0 | 0 | 3 | 0 | 0 | 0
7 | Cc1ccccc1-n1c([C@H](C)Nc2nc(N)nc3nc[nH]c23)nc2cccc(C)c2c1=O [CAL-130 (Hydrochloride)] (10 µM) | 0 | 0 | 0 | 0 | 0 | 0 | 0 | 0 | 0 | 0
8 | NC(=O)c1nc(Nc2ccccc2)sc1NC(=O)C1CCCCC1 (10 µM) | 0 | 0 | 0 | 0 | 0 | 0 | 0 | 0 | 0 | 0
9 | Cn1nccc1Nc1nccc(-c2ccn([C@H](CO)c3ccc(Cl)c(F)c3)c(=O)c2)n1 [Ravoxertinib hydrochloride] (10 µM) | 0 | 0 | 0 | 0 | 0 | 0 | 0 | 0 | 0 | 0
